Laboratory results reported in PubChem BioAssay AID493014 (National Center for Advancing Translational Sciences (NCATS), 2011).
About 170 (0.05%) of roughly 340,000 compounds were called active. Inconclusive means that the source gave no clear call. Such entries were picked first, then a sample of the others. Calls come from the whole dose curve; as a rule, active = well fitted inhibition curve with a large enough effect in the signal ratio, with a control signal flat (not every such curve was filed as active); inconclusive = small, poorly fitted or top-dose-only effect, or effect the other way, or a change in a side signal; inactive = flat fitted curve, though single readings scatter; the % refers to the signal ratio. Potencies beside an inconclusive call are fits to weak or partial responses and may not hold up.

Test: qHTS Assay to Find Inhibitors of Chronic Active B-Cell Receptor Signaling;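 for activity change, negative = inhibition: plate controls were basal doxycycline-induced cells for no effect and cells given 10 µM MG132 for full effect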
Conditions: ABC-DLBCL IkBa-CBG/CBR reporter, luminescence ratio (green luciferase fused to IkBa over red control in TMD8 lymphoma cells), 4 h; activity change, negative = inhibition: at 46.1 µM (top of the series)
Procedure, shortened: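 Doxycycline induced both beetle luciferases in TMD8 lymphoma cells; IKK-driven degradation limits the IkappaBalpha-fused green signal, while red luminescence normalises for cell number and nonspecific effects. Compounds tested up to 46 uM, 4 hrs.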
Potency is the fitted concentration of half-maximal effect.

| SMILES | Potency | activity change, negative = inhibition |
| --- | --- | --- |
| Cc1c(C(=O)OCC(=O)c2c(N)n(CC(C)C)c(=O)n(C)c2=O)oc2ccccc12 | inconclusive: 0.103 µM [rising, full curve, poor fit] |  |
| COc1ccccc1N(CC(=O)Nc1ccccc1C(=O)N1CCCC1)S(C)(=O)=O |  | inconclusive: -1.06% |
| Fc1ccc2c(c1)C(c1ccncc1)=NNC(c1ccc(Cl)cc1)=N2 |  | inactive: -8.06% |
| Cc1cccc(NC(=O)c2c(O)c3ccccc3[nH]c2=O)c1 |  | inconclusive: 8% |
| CCOc1ccc(S(=O)(=O)NNC(=S)Nc2ccc(Br)cc2)cc1 |  | inconclusive: 0.515% |
| Cc1cc(C)cc(C(=O)N2CC(=O)Nc3ccccc32)c1 | inconclusive: 4.61 µM [falling, full curve, poor fit] |  |
| CCN(CC)S(=O)(=O)c1ccc(N(C)Cc2cccnc2)nc1 |  | inconclusive: -3.88% |
| FC(F)Oc1ccc(NC(=S)NCCc2ccccn2)cc1 |  | inconclusive: 22.9% |
| COc1ccc(NC(=O)CCCNS(=O)(=O)c2cccs2)cc1 |  | inactive: 2.6% |
| COCCn1c(C)cc(C(=O)COC(=O)c2ccc([N+](=O)[O-])o2)c1C |  | inactive: 7.38% |
| COc1ccccc1C(=O)NC(=O)COC(=O)c1ncc(Cl)c(Cl)c1Cl |  | inconclusive: -0.0429% |
| Cc1ccc(-c2nn3c(C)nnc3c3ccccc23)cc1S(=O)(=O)NCc1ccco1 |  | inconclusive: -27.6% |
| OC1(c2cccc(C(F)(F)F)c2)CCN(Cc2nnnn2Cc2ccccc2)CC1 |  | inconclusive: -10.4% |
| CCN(CC)C(=O)Cn1c(=O)n(-c2ccccc2)c(=O)c2c3c(sc21)CCC3 |  | inconclusive: 4.29% |
| CC(C)N=C(N)N=C(N)Nc1ccc(Cl)cc1 |  | inconclusive: 5.33% |
| Cc1csc(NC(=O)CSc2nc(=O)[nH]c3c2CCCC3)n1 |  | inconclusive: 7.21% |
| O=C(Oc1ccc(C(=S)N2CCOCC2)cc1)c1cccc([N+](=O)[O-])c1 |  | inactive: 2.98% |
| Cc1ccc(C(CCN)c2ccco2)cc1 (centres undefined) |  | inconclusive: 17.3% |
| O=C(Nc1cccc(-c2cscn2)c1)C1CCN(Cc2ccccn2)CC1 |  | inactive: -4.75% |
| CCNC(=S)NN=C1CCC(C(C)(C)C)CC1 (centres undefined) | inconclusive: 29.1 µM [falling, single point] |  |
| CCOc1cc(NC(=S)NCC2CCCO2)c(OCC)cc1NC(=O)c1cccc(F)c1 (centres undefined) |  | inactive: 5.03% |
| Cc1ccc(SCC(=O)NCCN2C(=O)CSC2=O)cc1C |  | inactive: 3.56% |
| O=C(CO/N=C/c1cccc([N+](=O)[O-])c1)Nc1ccc2ccccc2c1 |  | inconclusive: -9.13% |
| COC(=O)C1=NN(C(=O)c2ccc(Br)cc2)C(O)(C(C)(C)C)C1 (centres undefined) | inconclusive: 12.6 µM [falling, partial curve] |  |
| CC(C)Cn1c(N)c(C(=O)COC(=O)c2cc3ccccc3cc2O)c(=O)n(C)c1=O |  | inconclusive: -3.04% |
| COc1ccc(OC(C)C(=O)NCCc2nc3ccccc3[nH]2)cc1 (centres undefined) |  | inconclusive: 0.0262% |
| COC(=O)c1ccc(C2=NOC(C)(c3sc(-c4ccccc4)nc3C)C2)cc1 (centres undefined) |  | inconclusive: 3.27% |

| SMILES | Potency | activity change, negative = inhibition |
| --- | --- | --- |
| COc1cc(-c2nc(N)n[nH]2)cc(OC)c1OC |  | inconclusive: -0.517% |
| Cc1ccc(-c2ccc(/C=N/NC(=O)CN3CCOCC3)o2)cc1[N+](=O)[O-] | inconclusive: 15.8 µM [falling, single point] |  |
| CC1CCCCC1NC(=S)Nc1cccc(S(=O)(=O)N(C)C)c1 (centres undefined) |  | inactive: 0.5% |
| Cc1ccc(/C=C/C(=O)NCCc2c[nH]c3ccccc23)o1 |  | inconclusive: 3.12% |
| COc1cc(/C=N/NC(=O)c2cn(-c3cccc(C)n3)cn2)ccc1O |  | inconclusive: -10.6% |
| c1ccc2c(c1)NC(c1ccncc1)n1c-2nc2ccccc21 (centres undefined) |  | inconclusive: -0.298% |
| O=Cc1c[nH]c2ccc(S(=O)(=O)N3CCOCC3)cc12 |  | inconclusive: 0.246% |
| CN1CCN(C(=S)NC(=O)c2cccc(S(=O)(=O)N(C)C)c2)CC1 |  | inactive: 2.13% |
| O=C(Nc1cc(-c2ccccc2)[nH]n1)c1ccccc1F |  | inconclusive: 153% |
| C/C(=N\NC(=O)COc1ccccc1[N+](=O)[O-])c1cccs1 |  | inconclusive: -24.1% |
| O=C(Nc1ccccc1C(=O)NCCN1CCOCC1)c1cccc([N+](=O)[O-])c1 | inconclusive: 25.1 µM [falling, single point] |  |
| CCn1c(=O)c2sccc2n(Cc2ccc(C)cc2)c1=O |  | inactive: -0.484% |
| CCC(CC)C(=O)Nc1cccc(C(=O)Nc2nccs2)c1 |  | inconclusive: -0.598% |
| CCn1c(C)c(C(C)=O)c(N2CCN(c3cccc(Cl)c3)CC2)nc1=S |  | inconclusive: -11.9% |
| Cc1cccc(NC(=O)c2sc3nc(N)c(C#N)cc3c2N)c1 | inconclusive: 18.4 µM [falling, partial curve, poor fit] |  |
| COc1ccc(OC)c(C(=O)CSc2nnc(Cc3cccs3)n2C)c1 | inconclusive: 20.6 µM [falling, partial curve] |  |
| CC1C(=O)C(C)C(c2ccc3c(c2)OCO3)NC1c1ccc2c(c1)OCO2 (centres undefined) |  | inactive: 12.8% |
| Cc1nc2ccc(N=NN(C)C)cc2[nH]1 |  | inconclusive: 17.6% |
| Cc1ccccc1C(=O)Nc1cccc(C(=O)Nc2ccccc2C(=O)O)c1 |  | inactive: 1.95% |
| Cc1ccc(C)c(C(=O)COC(=O)CCN2C(=O)C3C4CCC(C4)C3C2=O)c1 (centres undefined) |  | inactive: 3.92% |
| COc1ccc2c(c1)Cc1sc(NC(=O)c3cccc(Br)c3)nc1-2 | inconclusive: 1.26 µM [rising, full curve, poor fit] |  |
| CCOc1ccc(CN2CCN(Cc3cccn3-c3cccnc3)CC2CCO)cc1 (centres undefined) | inconclusive: 35.5 µM [falling, single point] |  |
| COc1cccc(-n2cn[nH]c2=S)c1 | inconclusive: 25.1 µM [falling, single point] |  |
| Cn1c(OCc2cccnc2)nc2c1c(=O)n(Cc1ccc(F)cc1)c(=O)n2C |  | inactive: 4% |
| Cc1cc(OCCn2ccnc2)cc(C)c1Cl |  | inactive: -1.15% |
| COc1cc(CCC(=O)OCC(=O)NC(=O)c2ccc(Cl)cc2)cc(OC)c1OC |  | inconclusive: 9.88% |
| Cc1c(NC(=O)CSc2ncnc3c2cnn3-c2ccccc2)c(=O)n(-c2ccccc2)n1C |  | inconclusive: 0.347% |

An excerpt from above in order of molecular weight, falling.

| SMILES | Potency | activity change, negative = inhibition |
| --- | --- | --- |
| Cc1ccc(-c2nn3c(C)nnc3c3ccccc23)cc1S(=O)(=O)NCc1ccco1 |  | inconclusive: -27.6% |
| COc1cc(/C=N/NC(=O)c2cn(-c3cccc(C)n3)cn2)ccc1O |  | inconclusive: -10.6% |
| Cc1cccc(NC(=O)c2c(O)c3ccccc3[nH]c2=O)c1 |  | inconclusive: 8% |
